Measurements taken from patent publication US7993662B2, “Transparent solid oil cosmetics” (Kokyu Alcohol Kogyo Co., Ltd., priority 2005, dated 2011).
At least one compound was matched to its structure with a doubt left.

Assay: Evaluation of transparency −1 (maximum transmittance of visible light 400 to 800 nm, 1 cm thick cell, visual against control)
Assay type: physicochemical
Conditions: UNICLEAR 100VG: 30% with 70% of the listed component

Row | Compound | Transparency
1 | CCCCCCCCCCCCCCCCOC(=O)C(CC)CCCC (stereo not drawn) [CEH, Cetyl ethylhexanoate] | A (Transparent 30% or greater)
2 | CCCCC(CC)C(=O)OCC(C)(C)COC(=O)C(CC)CCCC (stereo not drawn) [NDO, Neopentylglycol diethylhexanoate] | A (Transparent 30% or greater)
3 | CCCCC(CC)C(=O)OCC(COC(=O)C(CC)CCCC)(COC(=O)C(CC)CCCC)COC(=O)C(CC)CCCC (stereo not drawn) [PTO, Pentaerythrityl tetraethylhexanoate] | C (Cloudy less than 10%)
